The subject of this series is HepG2 cells. Put plainly: Amino acid consumption of HepG2 cells after IL-6 stimulation in complete medium (HPLC of media). The format is cell-based, human. Particulars: for change in concentration of amino acid in the media: 0 to 24 h; for Concentration of amino acids in RPMI-1640 media: n = 6.
The mark [1] stands for this setting: HepG2 cells after IL-6 stimulation.
Where [2] appears, read: T = 24 h, HepG2 cells after IL-6 stimulation.

The structures appear in SMILES notation.

`C[C@H](N)C(=O)O` [Ala, alanine]: the “change in concentration of amino acid in the media” value (“change in concentration” for short) under setting [1] is “decrease”. Moreover, the “Concentration of amino acids in RPMI-1640 media” value (from here on “Concentration of amino acids”) stood at 213 ± 5 µM (T = 0 h) and 144 ± 8 µM under setting [2].
In the case of `N=C(N)NCCC[C@H](N)C(=O)O` [Arg, arginine], the “Concentration of amino acids” value was 292 ± 11 µM (T = 0 h) and 267 ± 12 µM under setting [2].
As to `NC(=O)C[C@H](N)C(=O)O` [Asn, asparagine], the “Concentration of amino acids” value was 358 ± 17 µM (T = 0 h) and 331 ± 15 µM under setting [2].
Consider `N[C@@H](CC(=O)O)C(=O)O` [Asp, aspartic acid], for which the “change in concentration” value under setting [1] was “decrease”. Besides, the “Concentration of amino acids” value (T = 0 h) worked out at 377 ± 18 µM and the “Concentration of amino acids” value under setting [2] is 339 ± 15 µM.
Consider `NC(=O)CC[C@H](N)C(=O)O` [Gln, glutamine], for which the “change in concentration” value under setting [1] is given as “decrease”. The “Concentration of amino acids” value (T = 0 h) turned out to be 392 ± 14 µM and the “Concentration of amino acids” value under setting [2] is 212 ± 3 µM.
Consider `N[C@@H](CCC(=O)O)C(=O)O` [Glu, glutamic acid], for which the “change in concentration” value under setting [1] is “significant increase”. In addition, the “Concentration of amino acids” value was 408 ± 20 µM (T = 0 h) and 465 ± 23 µM under setting [2].
As for `NCC(=O)O` [Gly, glycine], the “Concentration of amino acids” value runs as follows: (T = 0 h) 661 ± 40 µM; under setting [2], 607 ± 37 µM.
As to `N[C@@H](Cc1c[nH]cn1)C(=O)O` [His, histidine], the “Concentration of amino acids” value was 278 ± 7 µM (T = 0 h) and 260 ± 12 µM under setting [2].
Regarding `CC[C@H](C)[C@H](N)C(=O)O` [Ile, isoleucine], the “change in concentration” value under setting [1] was “decrease”. The “Concentration of amino acids” value (T = 0 h) was found to be 426 ± 12 µM and the “Concentration of amino acids” value under setting [2] amounted to 324 ± 11 µM.
The matching figures for `CC(C)C[C@H](N)C(=O)O` [Leu, leucine]: “decrease”, 368 ± 8 µM and 277 ± 10 µM.
For the compound `NCCCC[C@H](N)C(=O)O` [Lys, lysine], the “Concentration of amino acids” value came to 202 ± 13 µM (T = 0 h) and 181 ± 11 µM under setting [2].
The corresponding values for `CSCC[C@H](N)C(=O)O` [Met, methionine] are 362 ± 11 µM and 360 ± 16 µM.
For `N[C@@H](Cc1ccccc1)C(=O)O` [Phe, phenylalanine], the “Concentration of amino acids” value (T = 0 h) is 326 ± 16 µM and the “Concentration of amino acids” value under setting [2] came to 298 ± 13 µM.
For the compound `N[C@@H](CO)C(=O)O` [Ser, serine], the “Concentration of amino acids” value runs as follows: (T = 0 h) 356 ± 14 µM; under setting [2], 344 ± 17 µM.
Turning to `C[C@@H](O)[C@H](N)C(=O)O` [Thr, threonine], the “Concentration of amino acids” value is, setting by setting: (T = 0 h) 327 ± 17 µM; under setting [2], 294 ± 13 µM.
Turning to `N[C@@H](Cc1c[nH]c2ccccc12)C(=O)O` [Trp, tryptophan], the “Concentration of amino acids” value runs as follows: (T = 0 h) 253 ± 8 µM; under setting [2], 248 ± 11 µM.
Consider `N[C@@H](Cc1ccc(O)cc1)C(=O)O` [Tyr, tyrosine], for which the “Concentration of amino acids” value (T = 0 h) came out at 274 ± 12 µM and the “Concentration of amino acids” value under setting [2] stood at 246 ± 24 µM.
Turning to `CC(C)[C@H](N)C(=O)O` [Val, valine], the “change in concentration” value under setting [1] is recorded as “decrease”. Besides, the “Concentration of amino acids” value reads like this: (T = 0 h) 383 ± 15 µM; under setting [2], 328 ± 13 µM.

The record behind these values is patent publication US20120252723A1, “Regulating the Amino Acid Pool Used for the Acute-Phase Protein Synthesis” (N.V. Nutricia, priority 2009, published 2012).
